Results: the supplement of paper PMC3334620
The full ranking holds about 33,000 sequences; the median of “E-score (-0.5 to 0.5)” is about -0.0034, and the highest 2% start at about 0.25. Some of the results follow.

target: T1, Yap3 (UniProt P38749); assay: PBM E-score (8-mer binding enrichment) (E-score (-0.5 to 0.5)); higher = stronger / more preferred TF binding; details: protein concentration: 100 nM; construct: GST-full length
T1 sequence: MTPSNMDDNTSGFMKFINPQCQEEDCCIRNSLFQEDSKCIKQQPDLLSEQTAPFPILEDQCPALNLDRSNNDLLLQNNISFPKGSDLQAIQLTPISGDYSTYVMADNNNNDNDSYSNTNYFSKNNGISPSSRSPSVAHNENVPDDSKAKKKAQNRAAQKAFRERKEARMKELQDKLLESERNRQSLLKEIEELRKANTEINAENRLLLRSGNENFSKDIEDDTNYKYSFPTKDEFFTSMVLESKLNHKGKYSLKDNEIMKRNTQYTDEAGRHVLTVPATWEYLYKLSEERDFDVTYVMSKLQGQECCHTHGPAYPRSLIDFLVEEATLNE
Outline: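 GST-tagged yeast TFs (full-length or DNA-binding domain) were made by PURExpress in vitro transcription/translation and applied at about 100-200 nM to universal all-10-mer Agilent arrays. The arrays were made double-stranded by primer extension, on fresh or once-stripped slides. Bound protein was detected with fluorescent anti-GST, and scans were normalised with masliner. Each ungapped eight-base word, pooled with its reverse complement, received an E-score (modified Wilcoxon-Mann-Whitney statistic) from the Universal PBM Analysis Suite.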

Sequence	PBM E-score
CTTAGTTC	-0.0308
ACCGTTCT	0.0263
CGCAATGC	-0.0367
ACCACAGT	0.143
ATGTTATG	0.241
TCAAAGGA	0.0165
GTACGATA	0.126
AACGTTTA	0.114
GCCACTCC	-0.113
AGCCCGTA	-0.194
ACGAAGAA	0.282
ATTCACAG	0.0188
ATGAGAGG	-0.161
AGAGCTTG	-0.0861
CCCGTCGC	-0.0569
AAACACCC	0.0336
ACGGAATA	0.175
ACGCCGGA	-0.21
CCCCAAGG	-0.132
CTGCTTCA	-0.184
CAAAATTA	0.163
AAATCCAC	0.0662
GTTGCACA	-0.147
CCAACTGA	-0.00042
AAACATGT	0.251

Sequence	PBM E-score
CGTCATAA	0.155
CCTGGTCG	-0.188
CCAAGTAG	-0.101
CGAGATTC	0.0556
CATGATAC	0.166
CTGGCTGC	-0.235
CGTCCCTA	-0.206
AGGCAAGC	-0.0963
ATATACTG	0.213
ATTTTTTC	0.113
CGAATGAA	-0.0326
GGACAGCA	-0.0442
GAGACCCC	-0.195
ATTTCCTG	0.202
CTTTTGCC	0.177
CCAAGGAA	-0.183
AATTTTGA	0.169
GATCAGTA	0.132
AGACTTTG	-0.0746
AGGGGGGG	-0.444
ACTGCTAG	-0.159
GATAAAAA	0.192
CCCGTCGA	-0.172
AAAGTGTC	-0.0685
ACTATGGA	-0.114

Sequence	PBM E-score
ACCTCATA	0.0723
AGAGCTCA	-0.109
GCGATCGC	0.191
GGAGGTAA	0.028
CTCGTGTA	0.00396
ATGTGTAG	0.18
CGAAACTA	0.0831
GGTCATGA	0.0536
CAGGTGAC	-0.153
CGGTCCTC	-0.175
CGATTTGC	-0.0862
ATACCTGA	0.131
CTCATAAA	0.0264
CCTAGACA	-0.257
ATCTATGA	0.105
AGGCCCCG	-0.275
ATCTAGAG	-0.00421
AGTGCAAT	0.181
CCTCGCGC	-0.0548
ATTGGTCG	0.0921
GGGACAGA	-0.139
GATTACAA	0.154
CCGGCGCA	-0.113
CAAGACAC	0.0732
CGTACTCA	0.0699

Sequence	PBM E-score
CGCGACGC	-0.0221
TCAAGCGA	-0.0261
ACAATGAA	0.143
GGCTTGAC	0.0242
CCCCCCAG	-0.435
CGCTGTGA	-0.0572
AGCCGGTA	-0.0519
ACGTTCCC	-0.0647
ATTAATTG	0.245
CCAATAGC	-0.2
CTGGACAG	-0.104
CACACCTC	0.102
AAACGATA	0.0765
ATTTTAGG	0.0901
ATGGGAAG	-0.129
AACTTGTG	0.241
AGAATCTA	-0.0155
CGTCCAAA	0.0569
CTGACGAC	0.0156
ATATGTTA	0.115
TACCCTGA	-0.0597
CTTGCAAG	-0.104
ATAGCGTA	0.12
AATGAGGA	-0.0149
ACAGCATC	0.0911

Sequence	PBM E-score
AAACACAA	0.213
ACACGCCG	0.0508
GTGCCCGA	-0.123
AAGTACTG	0.0174
CTTGCGTA	0.0672
AGACGCGA	0.0808
ACATCCCG	0.0992
ACTTGTCA	0.0442
AAAAGTAG	0.105
CGGAGGAC	-0.182
AACGGGTA	0.0762
AGAGTGAG	0.0371
CACCGACA	-0.0733
AGCAAGAC	-0.0111
ACGCTCAA	0.113
CGCGCCCG	-0.239
AGCACAAG	-0.099
CTGCCACA	-0.0726
CGCAAATC	0.159
CGACTGTC	-0.128
CGCCGCAC	-0.156
AAGCCTGT	0.00346
CAGGCTAA	-0.0677
CGAAAACA	0.0677
GTTACCTA	0.0338

Sequence	PBM E-score
AGACCGGA	-0.0997
ATCCCCTA	-0.0597
AATTTCCC	0.217
CTTGAAAA	0.161
AACCGGTC	0.0496
AGATCCGA	0.0264
CGAGAGCA	-0.0377
ATTTCCGC	0.0972
TCACCAAA	0.138
CTTTTAGC	-0.00556
CGTTGAAA	0.0583
ATGCGATG	-0.143
GCGTAAAA	0.231
GCTCTCTA	-0.101
ACGAGATG	-0.00787
AGCCGACC	-0.277
CATTAGCC	-0.0433
CCACTGAA	-0.0362
CTCTAAAC	0.167
GCGAGCAA	-0.0568
CTGGCCAG	-0.153
GGATGATA	0.122
AACTCTAA	0.0145
CGGCAGAG	-0.224
AAATGAGA	0.0852

Rewritten with bars between the fields: part of the list above
Sequence | PBM E-score
CGTCCAAA | 0.0569
CTGACGAC | 0.0156
ATATGTTA | 0.115
TACCCTGA | -0.0597
CTTGCAAG | -0.104
ATAGCGTA | 0.12
AATGAGGA | -0.0149
ACAGCATC | 0.0911
AAACACAA | 0.213
ACACGCCG | 0.0508
GTGCCCGA | -0.123
AAGTACTG | 0.0174
CTTGCGTA | 0.0672
AGACGCGA | 0.0808
ACATCCCG | 0.0992
ACTTGTCA | 0.0442
AAAAGTAG | 0.105
CGGAGGAC | -0.182
AACGGGTA | 0.0762
AGAGTGAG | 0.0371
CACCGACA | -0.0733
AGCAAGAC | -0.0111
ACGCTCAA | 0.113
CGCGCCCG | -0.239
AGCACAAG | -0.099
CTGCCACA | -0.0726
CGCAAATC | 0.159
CGACTGTC | -0.128
CGCCGCAC | -0.156
AAGCCTGT | 0.00346
CAGGCTAA | -0.0677
CGAAAACA | 0.0677
GTTACCTA | 0.0338
AGACCGGA | -0.0997
ATCCCCTA | -0.0597
AATTTCCC | 0.217
CTTGAAAA | 0.161
AACCGGTC | 0.0496
AGATCCGA | 0.0264
CGAGAGCA | -0.0377
ATTTCCGC | 0.0972
TCACCAAA | 0.138
CTTTTAGC | -0.00556
CGTTGAAA | 0.0583
ATGCGATG | -0.143
GCGTAAAA | 0.231
GCTCTCTA | -0.101
ACGAGATG | -0.00787
AGCCGACC | -0.277
CATTAGCC | -0.0433
CCACTGAA | -0.0362
CTCTAAAC | 0.167
GCGAGCAA | -0.0568
CTGGCCAG | -0.153
GGATGATA | 0.122
AACTCTAA | 0.0145

Next records:

Sequence	PBM E-score
CACTGAGA	0.0397
ACACATTC	0.094
AAGTCATG	0.156
CCGCAACC	-0.204
AGAGGGAA	-0.297
AATCGTTG	0.146
AATGTTCT	-0.00259
AGAGCATG	-0.152
TAAATTGA	0.157
ATCCCGAA	0.0926
TGCATACA	0.0671
CGGTACTA	-0.00581
GTAGTCTA	0.112
CTACTAAG	0.0819
AAATAGGT	0.127
AGCGCGTA	0.199
GCGGACGA	-0.0635
ACCTGAAG	0.00792
AGTAAACT	0.0322
AGAGTGAC	-0.195
GGTATCTA	0.0685
CTAACGTA	0.191
GTAATTAA	0.259
ACGCTCTC	-0.165
TCATATGA	0.317

Sequence	PBM E-score
CCCGAGCG	-0.137
AAGAACCT	0.131
ACGGCAAC	-0.044
GATTATGC	0.0614
GATATAAA	0.21
ACACCACA	0.0359
ACCCTTGC	-0.0563
CGTTGAGA	-0.0379
ACAACTTG	0.152
AGGCTTTC	0.061
ACTATTGG	0.0824
CTATGTCA	0.00564
CCTAATGA	0.128
GCAGGTCA	-0.128
CAGGTCAG	-0.0863
ACACAGAA	-0.0211
AACCGGGT	-0.172
AACCGGTT	0.087
AATGCCAT	-0.00745
TCCGCCGA	-0.096
AGAATTAA	0.0654
AAGCAGCC	-0.144
GGAAACGA	0.184
AGGCTCTG	-0.133
TAGAAGGA	-0.239

Sequence	PBM E-score
CACCTTAC	0.213
AACAGAAC	0.104
ACCGTCTG	-0.262
AAATGGTG	0.0935
TCAACTGA	0.0958
AGGATAGC	0.0231
ATAGCGTG	-0.00896
ATTGATTC	0.0449
ACACATGA	0.126
CCGGGCCG	-0.338
TATCCAGA	0.0575
ATCTTCGC	0.0966
AAAAGGGG	-0.187
GGAAATAA	0.222
ATACAGTC	-0.0773
AACGCACC	-0.0728
ACTGTATC	-0.119
ATGGAATG	-0.156
CGAGATAA	0.29
